The record followed here is paper PMC6839619.

These are yes or no findings as the source states them, for the method shown. A result given as binding can be weak or reduced; the word gives no strength. Tags and fused reporters may be left off the sequences shown.

The target of experiment [1] is T1, StrepII-GFP-TRIM46 (UniProt Q7Z4K8).
T1 sequence: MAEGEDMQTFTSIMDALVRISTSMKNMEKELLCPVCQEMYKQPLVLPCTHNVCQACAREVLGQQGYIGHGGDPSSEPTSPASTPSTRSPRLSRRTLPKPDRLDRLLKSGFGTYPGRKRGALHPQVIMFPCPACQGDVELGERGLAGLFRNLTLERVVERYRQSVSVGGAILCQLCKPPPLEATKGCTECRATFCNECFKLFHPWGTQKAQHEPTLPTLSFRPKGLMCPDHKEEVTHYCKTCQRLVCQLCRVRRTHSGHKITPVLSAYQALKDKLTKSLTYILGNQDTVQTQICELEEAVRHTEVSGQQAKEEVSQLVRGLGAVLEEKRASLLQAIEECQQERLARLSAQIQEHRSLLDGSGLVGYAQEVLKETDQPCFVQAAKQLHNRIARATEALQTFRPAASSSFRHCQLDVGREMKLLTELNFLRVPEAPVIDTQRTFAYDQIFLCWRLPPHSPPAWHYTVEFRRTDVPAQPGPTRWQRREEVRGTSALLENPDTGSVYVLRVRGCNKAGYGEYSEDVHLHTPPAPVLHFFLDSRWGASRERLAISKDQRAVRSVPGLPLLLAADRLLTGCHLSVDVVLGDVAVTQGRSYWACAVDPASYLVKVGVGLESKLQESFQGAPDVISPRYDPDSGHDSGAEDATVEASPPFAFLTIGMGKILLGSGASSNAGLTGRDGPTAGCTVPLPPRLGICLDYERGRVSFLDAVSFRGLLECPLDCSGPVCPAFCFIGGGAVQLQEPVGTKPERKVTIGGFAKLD
Briefly: TIRF microscopy of in vitro reconstituted dynamic microtubules; without EBs; TRIM46 with 480AnkG or 480AnkG-NN; single MTs and TRIM46-decorated MT bundles; both purified.

Experiment [2] addresses T1, StrepII-GFP-TRIM46. Briefly: TIRF microscopy of in vitro reconstituted dynamic microtubules; 20 nM dark-EB3, 20 nM GFP-TRIM46 and 10 nM 480AnkG-mCherry together; single MTs and TRIM46-decorated two-MT bundles; MRB80 buffer pH 6.8 with 50 mM KCl, 30°C; both purified.

Consider StrepII-480AnkG-mCherry, for which the binding entry in the experiment with StrepII-GFP-TRIM46 [1] and in the experiment with StrepII-GFP-TRIM46 [2] was “binds weakly” throughout.
